From publication doi:10.64898/2025.12.14.694184 (bioRxiv, 2025) come the findings set out here.

No constants are given. Whether binding was seen depends on the method and setting. Binding seen in cells or lysates may run through a third protein. Here binding means that the protein was enriched with, or labelled near, the bait; the list need not be complete. Where a sequence is shown, tags or fusion partners need not be part of it.

For this assay, the target named is T1, mCLCC1-StrepTagII-FLAG-StrepTagII (mouse) (UniProt Q99LI2).
T1 sequence: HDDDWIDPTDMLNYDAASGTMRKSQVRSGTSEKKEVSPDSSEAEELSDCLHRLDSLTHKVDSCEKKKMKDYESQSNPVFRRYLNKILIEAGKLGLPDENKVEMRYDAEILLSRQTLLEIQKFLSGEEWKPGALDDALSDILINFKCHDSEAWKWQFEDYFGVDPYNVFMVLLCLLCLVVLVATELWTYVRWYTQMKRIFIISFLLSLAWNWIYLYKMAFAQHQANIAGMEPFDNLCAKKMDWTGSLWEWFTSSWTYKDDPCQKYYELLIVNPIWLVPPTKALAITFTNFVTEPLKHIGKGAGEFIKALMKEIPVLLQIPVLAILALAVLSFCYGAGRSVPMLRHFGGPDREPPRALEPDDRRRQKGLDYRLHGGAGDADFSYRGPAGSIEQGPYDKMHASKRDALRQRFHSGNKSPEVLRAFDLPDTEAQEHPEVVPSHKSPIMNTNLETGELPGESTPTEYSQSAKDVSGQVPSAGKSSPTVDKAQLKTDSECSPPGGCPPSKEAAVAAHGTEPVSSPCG
Kind of assay: affinity purification with mass spectrometry.

B1: TorsinA (endogenous, mouse liver) (protein, UniProt Q9ER39 21-333)
chain: VEPISLSLALAGVLTTYISYPRLYCLFAECCGQMRSLSREALQKDLDNKLFGQHLAKKVILNAVSGFLSNPKPKKPLTLSLHGWTGTGKNFASKIIAENIYEGGLNSDYVHLFVATLHFPHASNITQYKDQLQMWIRGNVSACARSIFIFDEMDKMHAGLIDAIKPFLDYYDVVDEVSYQKAIFIFLSNAGAERITDVALDFWKSGKQREEIKLRDMEPALAVSVFNNKNSGFWHSSLIDRNLIDYFVPFLPLEYKHLKMCIRVEMQSRGYEVDEDIISKVAEEMTFFPKEEKVFSDKGCKTVFTKLDYYLDD
Turning to B1, the binding entry was “binds”.

B2: TorsinB (endogenous, mouse liver) (protein, UniProt Q9ER41 25-336)
chain: FEPVSVGIAIGAVSALTGYLSYTDFYCRFTECCHEERPLNTSALKLDLEEKLFGQHLATEVILKALTGFRNNKNSKKPLTLSLHGWAGTGKNFISQIVAENLYPKGLKSNFVHLFVSTLHFPHEQKIKVYQDQLQKWIRGNVSACGSSVFIFDEMDKLHPGIIDAIKPFLDYYEQVDGISYRRAIFIFLSNAGGDLITKTALDFWRAGRKREEIQLKDLEPVLSVGVFNNKHSGLWHSGLIDKNLIDYFIPFLPLEYKHVKMCVRAEMRARGAAVDEDVVTSVADEMTFFPKDEKIYSDKGCKTVQSRLDFH
As to B2, the binding result is “binds”.
